Laboratory results taken from patent US20240376454A1.
These are yes or no findings as the source states them, for the method shown. Some results given as binding are weak or reduced against the parent protein; the word gives no strength.

Tests used:
[1] = target: Pfu Cas8a (Pyrococcus furiosus); experiment: SEC and SDS-PAGE of reconstituted complexes
[2] = target: Pfu Cascade (Pyrococcus furiosus); experiment: agarose EMSA with labeled partners; SEC
[3] = target: Pfu Cascade (Pyrococcus furiosus); experiment: size-exclusion chromatography without target DNA
[4] = target: Pfu Cascade (Pyrococcus furiosus); experiment: cryo-EM of the Pfu Cascade-Cas3 complex
[5] = target: Pfu Cas8a (Pyrococcus furiosus); experiment: cryo-EM of the Pfu Cas3-Cas8a sub-complex
[6] = target: Pfu Cascade (Pyrococcus furiosus); experiment: agarose EMSA with Cy3-Cas3, Cy5-Cascade and FAM-dsDNA
[7] = target: T1, Pfu Cas3 HEL (Pyrococcus furiosus); experiment: SEC and SDS-PAGE of mixed subunits
T1 sequence: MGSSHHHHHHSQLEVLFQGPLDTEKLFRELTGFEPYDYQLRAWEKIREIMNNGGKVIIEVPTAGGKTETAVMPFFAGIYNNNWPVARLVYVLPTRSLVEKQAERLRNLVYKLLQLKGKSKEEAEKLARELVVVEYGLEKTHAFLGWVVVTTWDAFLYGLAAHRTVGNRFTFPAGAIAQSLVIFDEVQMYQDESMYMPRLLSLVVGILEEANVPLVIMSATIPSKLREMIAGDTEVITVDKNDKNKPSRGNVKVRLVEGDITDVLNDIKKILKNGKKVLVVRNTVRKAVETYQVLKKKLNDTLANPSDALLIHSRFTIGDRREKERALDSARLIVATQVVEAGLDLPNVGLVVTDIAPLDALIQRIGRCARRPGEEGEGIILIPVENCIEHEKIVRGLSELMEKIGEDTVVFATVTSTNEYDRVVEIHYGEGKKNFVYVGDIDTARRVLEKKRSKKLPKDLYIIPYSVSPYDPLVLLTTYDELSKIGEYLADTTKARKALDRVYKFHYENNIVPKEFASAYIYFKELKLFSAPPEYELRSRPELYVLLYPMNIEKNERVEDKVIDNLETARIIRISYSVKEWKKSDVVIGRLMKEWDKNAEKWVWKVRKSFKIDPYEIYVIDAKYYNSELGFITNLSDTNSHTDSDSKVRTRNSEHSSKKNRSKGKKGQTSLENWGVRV

Measured: binding

B1: Pfu Cas3 (HD+HEL) (enzyme)
chain 1: MGSSHHHHHHSQLEVLFQGPLGSSCKAFQGQTLREHIEAMLAAWEIVKNKYIPSIIRVMKTVGVKFTEEDADKFMKTLIILHDVGKCSEVYQKHLSNNEPLRGFRHELVSAYYAYNILKDMFKDETIAFIGALVVMMHHEPILMGQIRSLDKEELTPEVVLDKLRTFNGVMEGTESFIKSMIKEKLGVIPKVPSPTQEDVLREVIRLSVLARHRPDSGKLRMVVGALLIPLVLCDYKGAKEREGESPKFAEVLRVEMMK
chain 2: T1 sequence
binds: [1] | [2] | [3] | [4] | [5] | [6]

B2: Pfu Cas3 HD (enzyme)
chain: B1 chain 1
binds: [7]
